Results are given in words; binding and its absence hold for the method and conditions named. Binding seen in cells or lysates may run through a third protein. Some entries that bind do so weakly or less than the wild type. For part of these data: Tags and fused reporters may be left off the sequences shown. Each block holds one molecule with its values, some of them ahead of it.
How the values were obtained:
[1] = target: Flag-tagged PELO (HEK293T) (UniProt Q80X73); assay: co-IP
Flag-tagged NAIP5 = Flag-tagged NAIP5 (UniProt Q9R016); assay: co-IP
[2] = target: Flag-PELO (reconstituted in Pelo mKO BMDMs) (UniProt Q80X73); assay: co-IP
[3] = target: Flag-tagged NLRC4 (reconstituted in Nlrc4-/- BMDMs) (UniProt Q3UP24); assay: co-IP
[4] = target: endogenous NLRP3 (BMDMs) (mouse (endogenous in BMDMs)) (UniProt Q8R4B8); assay: co-IP
[5] = target: Flag-tagged full length (WT) NLRP3 (HEK293T) (mouse) (UniProt Q8R4B8); assay: co-IP
HA-tagged NLRC4 = HA-tagged NLRC4 (UniProt Q3UP24 1-1024); assay: co-sedimentation
[6] = target: Flag-tagged truncated NLRP3: NACHT domain (mouse) (UniProt Q8R4B8); assay: co-IP
[7] = target: T1, Flag-tagged truncated NOD2: NACHT domain (mouse) (UniProt Q8K3Z0); assay: co-IP
T1 sequence: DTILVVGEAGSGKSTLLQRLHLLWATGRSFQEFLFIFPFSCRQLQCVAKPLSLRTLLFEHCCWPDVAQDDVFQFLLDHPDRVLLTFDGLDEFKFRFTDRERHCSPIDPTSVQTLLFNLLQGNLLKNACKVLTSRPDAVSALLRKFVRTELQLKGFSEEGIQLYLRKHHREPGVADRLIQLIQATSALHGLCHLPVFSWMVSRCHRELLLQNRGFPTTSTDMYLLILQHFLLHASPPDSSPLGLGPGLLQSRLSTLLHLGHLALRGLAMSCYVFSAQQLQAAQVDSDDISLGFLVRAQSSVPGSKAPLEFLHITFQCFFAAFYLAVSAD

Chains of the proteins cited; added tags and fusions are not shown. Lines headed by an entry give the natural chain unless they say otherwise; changes in a name come on top. Residues count along the entry.
UniProt Q9R016, whole entry: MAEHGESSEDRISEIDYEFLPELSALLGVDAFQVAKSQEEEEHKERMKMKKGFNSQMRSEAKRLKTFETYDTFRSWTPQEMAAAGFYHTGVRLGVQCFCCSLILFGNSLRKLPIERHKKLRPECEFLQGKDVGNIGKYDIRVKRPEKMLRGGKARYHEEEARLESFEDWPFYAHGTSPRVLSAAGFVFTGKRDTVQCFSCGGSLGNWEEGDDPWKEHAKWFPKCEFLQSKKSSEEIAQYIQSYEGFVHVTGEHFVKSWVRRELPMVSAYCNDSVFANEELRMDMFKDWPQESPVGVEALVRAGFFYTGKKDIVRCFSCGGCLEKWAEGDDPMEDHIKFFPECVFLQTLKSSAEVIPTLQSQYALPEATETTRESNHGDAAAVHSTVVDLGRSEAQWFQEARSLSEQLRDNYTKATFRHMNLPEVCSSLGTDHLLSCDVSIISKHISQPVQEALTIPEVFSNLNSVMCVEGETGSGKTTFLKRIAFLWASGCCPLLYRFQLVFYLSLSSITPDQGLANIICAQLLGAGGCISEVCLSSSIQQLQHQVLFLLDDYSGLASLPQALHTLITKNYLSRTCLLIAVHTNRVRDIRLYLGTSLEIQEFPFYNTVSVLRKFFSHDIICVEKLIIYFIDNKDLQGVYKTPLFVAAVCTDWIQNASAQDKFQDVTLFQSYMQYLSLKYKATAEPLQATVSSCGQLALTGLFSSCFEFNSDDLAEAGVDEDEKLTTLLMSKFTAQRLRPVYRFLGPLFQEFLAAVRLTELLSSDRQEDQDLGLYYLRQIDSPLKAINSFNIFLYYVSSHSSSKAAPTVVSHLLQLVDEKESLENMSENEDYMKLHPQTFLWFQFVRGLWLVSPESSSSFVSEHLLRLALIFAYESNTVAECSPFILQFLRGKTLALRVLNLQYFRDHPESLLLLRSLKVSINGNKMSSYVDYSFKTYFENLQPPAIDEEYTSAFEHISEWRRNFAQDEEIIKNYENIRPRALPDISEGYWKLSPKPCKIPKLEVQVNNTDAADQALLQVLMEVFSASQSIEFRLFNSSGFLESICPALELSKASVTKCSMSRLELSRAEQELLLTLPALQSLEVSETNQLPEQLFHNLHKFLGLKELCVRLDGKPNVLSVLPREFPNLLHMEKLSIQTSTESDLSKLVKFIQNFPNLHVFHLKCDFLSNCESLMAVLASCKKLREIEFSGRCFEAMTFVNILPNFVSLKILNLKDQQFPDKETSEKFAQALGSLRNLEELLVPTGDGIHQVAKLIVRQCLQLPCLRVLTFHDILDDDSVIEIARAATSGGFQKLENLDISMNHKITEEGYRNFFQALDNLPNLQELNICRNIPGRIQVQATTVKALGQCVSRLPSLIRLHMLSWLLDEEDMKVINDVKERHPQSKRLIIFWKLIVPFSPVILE
UniProt Q3UP24, whole entry: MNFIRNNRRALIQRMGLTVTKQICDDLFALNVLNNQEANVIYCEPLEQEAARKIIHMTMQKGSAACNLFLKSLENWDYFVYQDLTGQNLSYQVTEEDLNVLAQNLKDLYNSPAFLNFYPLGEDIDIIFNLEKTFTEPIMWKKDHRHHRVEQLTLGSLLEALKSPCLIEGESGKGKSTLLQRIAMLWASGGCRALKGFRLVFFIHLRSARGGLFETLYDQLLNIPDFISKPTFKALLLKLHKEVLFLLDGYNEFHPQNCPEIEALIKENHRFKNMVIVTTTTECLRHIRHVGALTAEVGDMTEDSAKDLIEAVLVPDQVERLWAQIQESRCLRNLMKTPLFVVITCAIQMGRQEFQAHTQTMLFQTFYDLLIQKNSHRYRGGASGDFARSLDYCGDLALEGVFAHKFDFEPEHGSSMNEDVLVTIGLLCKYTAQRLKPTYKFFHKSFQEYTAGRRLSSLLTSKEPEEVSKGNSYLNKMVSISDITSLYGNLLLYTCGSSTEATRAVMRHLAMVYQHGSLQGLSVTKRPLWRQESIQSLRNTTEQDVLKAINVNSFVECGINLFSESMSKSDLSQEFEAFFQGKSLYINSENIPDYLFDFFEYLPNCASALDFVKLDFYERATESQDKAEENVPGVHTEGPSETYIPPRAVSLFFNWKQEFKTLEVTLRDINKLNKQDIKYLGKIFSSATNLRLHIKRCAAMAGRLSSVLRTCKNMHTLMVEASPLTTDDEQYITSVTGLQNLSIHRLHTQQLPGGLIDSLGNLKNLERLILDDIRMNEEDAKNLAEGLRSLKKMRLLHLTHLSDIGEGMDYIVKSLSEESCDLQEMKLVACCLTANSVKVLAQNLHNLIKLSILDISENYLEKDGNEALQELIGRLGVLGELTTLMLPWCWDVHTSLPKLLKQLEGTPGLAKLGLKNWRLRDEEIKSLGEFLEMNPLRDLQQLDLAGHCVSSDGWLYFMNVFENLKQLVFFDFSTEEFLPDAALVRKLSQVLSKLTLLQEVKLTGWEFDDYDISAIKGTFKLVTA
UniProt Q8R4B8, whole entry: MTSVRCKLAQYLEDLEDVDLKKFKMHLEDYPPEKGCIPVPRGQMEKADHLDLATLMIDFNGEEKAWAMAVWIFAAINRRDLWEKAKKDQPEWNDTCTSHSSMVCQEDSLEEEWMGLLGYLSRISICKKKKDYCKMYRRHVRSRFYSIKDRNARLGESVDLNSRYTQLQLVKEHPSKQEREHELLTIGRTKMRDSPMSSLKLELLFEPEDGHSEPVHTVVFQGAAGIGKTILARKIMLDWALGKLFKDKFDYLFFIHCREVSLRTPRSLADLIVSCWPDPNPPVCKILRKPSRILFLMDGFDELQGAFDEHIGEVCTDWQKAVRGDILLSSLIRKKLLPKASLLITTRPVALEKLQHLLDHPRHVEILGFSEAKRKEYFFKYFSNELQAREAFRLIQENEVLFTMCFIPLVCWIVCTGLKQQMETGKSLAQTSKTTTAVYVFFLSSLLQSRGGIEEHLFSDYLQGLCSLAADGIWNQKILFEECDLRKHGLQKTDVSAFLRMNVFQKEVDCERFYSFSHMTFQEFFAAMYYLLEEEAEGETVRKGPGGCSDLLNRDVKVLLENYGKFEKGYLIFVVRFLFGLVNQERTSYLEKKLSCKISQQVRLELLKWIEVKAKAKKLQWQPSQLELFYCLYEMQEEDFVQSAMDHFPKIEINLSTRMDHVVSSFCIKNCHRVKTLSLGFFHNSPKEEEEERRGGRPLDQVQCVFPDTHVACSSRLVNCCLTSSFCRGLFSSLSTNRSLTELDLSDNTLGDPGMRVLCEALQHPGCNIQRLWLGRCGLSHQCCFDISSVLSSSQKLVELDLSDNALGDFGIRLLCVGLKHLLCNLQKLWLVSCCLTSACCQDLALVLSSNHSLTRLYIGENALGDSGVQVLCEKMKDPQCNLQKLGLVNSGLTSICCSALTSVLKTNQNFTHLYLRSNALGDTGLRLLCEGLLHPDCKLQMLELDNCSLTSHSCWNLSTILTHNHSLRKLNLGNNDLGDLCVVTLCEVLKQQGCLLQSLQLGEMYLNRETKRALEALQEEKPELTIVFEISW
UniProt Q3TL44, 87-975: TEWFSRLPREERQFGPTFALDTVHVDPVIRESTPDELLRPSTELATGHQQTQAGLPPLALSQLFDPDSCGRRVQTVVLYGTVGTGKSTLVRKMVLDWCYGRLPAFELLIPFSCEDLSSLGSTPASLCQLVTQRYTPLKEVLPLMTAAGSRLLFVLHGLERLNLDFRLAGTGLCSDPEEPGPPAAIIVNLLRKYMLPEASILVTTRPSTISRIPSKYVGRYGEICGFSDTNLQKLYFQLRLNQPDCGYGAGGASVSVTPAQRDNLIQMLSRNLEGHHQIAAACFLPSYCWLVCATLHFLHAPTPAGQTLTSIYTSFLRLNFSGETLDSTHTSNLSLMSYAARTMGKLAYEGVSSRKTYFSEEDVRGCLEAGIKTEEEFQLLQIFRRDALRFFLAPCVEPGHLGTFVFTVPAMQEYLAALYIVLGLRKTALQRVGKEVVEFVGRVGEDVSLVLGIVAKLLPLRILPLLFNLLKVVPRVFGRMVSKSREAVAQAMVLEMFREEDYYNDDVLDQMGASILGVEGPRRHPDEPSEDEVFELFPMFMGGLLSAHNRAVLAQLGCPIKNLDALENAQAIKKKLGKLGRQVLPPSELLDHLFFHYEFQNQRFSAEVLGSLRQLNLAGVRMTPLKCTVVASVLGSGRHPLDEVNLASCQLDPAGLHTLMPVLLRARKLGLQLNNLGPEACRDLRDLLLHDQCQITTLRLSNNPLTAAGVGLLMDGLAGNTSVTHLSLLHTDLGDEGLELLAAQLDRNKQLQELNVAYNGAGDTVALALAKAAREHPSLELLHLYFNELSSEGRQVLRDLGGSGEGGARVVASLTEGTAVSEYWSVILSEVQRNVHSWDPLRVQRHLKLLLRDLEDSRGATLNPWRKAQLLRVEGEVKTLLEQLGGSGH
UniProt Q9QUN7, 25-784: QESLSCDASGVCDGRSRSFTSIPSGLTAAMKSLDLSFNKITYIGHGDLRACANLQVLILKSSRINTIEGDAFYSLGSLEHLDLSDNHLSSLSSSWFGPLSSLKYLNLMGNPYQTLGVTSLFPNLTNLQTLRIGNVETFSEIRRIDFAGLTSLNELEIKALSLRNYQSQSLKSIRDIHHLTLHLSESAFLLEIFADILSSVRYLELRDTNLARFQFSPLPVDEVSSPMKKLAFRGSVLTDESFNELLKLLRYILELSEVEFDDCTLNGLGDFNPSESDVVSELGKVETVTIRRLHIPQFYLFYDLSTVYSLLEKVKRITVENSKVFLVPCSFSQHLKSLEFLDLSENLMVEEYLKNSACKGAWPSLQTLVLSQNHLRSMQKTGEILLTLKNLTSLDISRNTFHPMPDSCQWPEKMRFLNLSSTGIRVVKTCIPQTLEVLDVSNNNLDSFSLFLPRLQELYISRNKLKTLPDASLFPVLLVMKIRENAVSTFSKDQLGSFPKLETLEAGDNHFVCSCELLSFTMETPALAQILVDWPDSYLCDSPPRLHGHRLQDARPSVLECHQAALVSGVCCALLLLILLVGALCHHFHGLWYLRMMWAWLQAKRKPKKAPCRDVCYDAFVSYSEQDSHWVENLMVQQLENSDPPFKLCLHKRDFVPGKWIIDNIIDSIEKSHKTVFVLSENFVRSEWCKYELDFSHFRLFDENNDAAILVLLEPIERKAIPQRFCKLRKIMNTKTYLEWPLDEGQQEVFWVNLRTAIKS

[8] = target: T2, AIM2 (co-expressed with PELO in HEK293T) (UniProt Q91VJ1); assay: co-IP
T2 sequence: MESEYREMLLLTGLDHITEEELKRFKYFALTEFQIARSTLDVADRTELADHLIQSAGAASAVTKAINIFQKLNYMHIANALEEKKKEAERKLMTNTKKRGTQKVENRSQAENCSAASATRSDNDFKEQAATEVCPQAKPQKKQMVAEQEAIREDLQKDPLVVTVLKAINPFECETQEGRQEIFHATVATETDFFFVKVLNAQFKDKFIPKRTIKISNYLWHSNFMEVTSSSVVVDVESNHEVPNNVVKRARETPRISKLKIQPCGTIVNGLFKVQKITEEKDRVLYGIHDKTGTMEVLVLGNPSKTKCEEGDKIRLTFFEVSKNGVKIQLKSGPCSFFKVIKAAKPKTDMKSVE

Flag-tagged NLRX1 = Flag-tagged NLRX1 (UniProt Q3TL44); assay: co-IP
[9] = target: T3, Flag-tagged full length (WT) NOD2 (mouse) (UniProt Q8K3Z0); assay: co-IP
T3 sequence: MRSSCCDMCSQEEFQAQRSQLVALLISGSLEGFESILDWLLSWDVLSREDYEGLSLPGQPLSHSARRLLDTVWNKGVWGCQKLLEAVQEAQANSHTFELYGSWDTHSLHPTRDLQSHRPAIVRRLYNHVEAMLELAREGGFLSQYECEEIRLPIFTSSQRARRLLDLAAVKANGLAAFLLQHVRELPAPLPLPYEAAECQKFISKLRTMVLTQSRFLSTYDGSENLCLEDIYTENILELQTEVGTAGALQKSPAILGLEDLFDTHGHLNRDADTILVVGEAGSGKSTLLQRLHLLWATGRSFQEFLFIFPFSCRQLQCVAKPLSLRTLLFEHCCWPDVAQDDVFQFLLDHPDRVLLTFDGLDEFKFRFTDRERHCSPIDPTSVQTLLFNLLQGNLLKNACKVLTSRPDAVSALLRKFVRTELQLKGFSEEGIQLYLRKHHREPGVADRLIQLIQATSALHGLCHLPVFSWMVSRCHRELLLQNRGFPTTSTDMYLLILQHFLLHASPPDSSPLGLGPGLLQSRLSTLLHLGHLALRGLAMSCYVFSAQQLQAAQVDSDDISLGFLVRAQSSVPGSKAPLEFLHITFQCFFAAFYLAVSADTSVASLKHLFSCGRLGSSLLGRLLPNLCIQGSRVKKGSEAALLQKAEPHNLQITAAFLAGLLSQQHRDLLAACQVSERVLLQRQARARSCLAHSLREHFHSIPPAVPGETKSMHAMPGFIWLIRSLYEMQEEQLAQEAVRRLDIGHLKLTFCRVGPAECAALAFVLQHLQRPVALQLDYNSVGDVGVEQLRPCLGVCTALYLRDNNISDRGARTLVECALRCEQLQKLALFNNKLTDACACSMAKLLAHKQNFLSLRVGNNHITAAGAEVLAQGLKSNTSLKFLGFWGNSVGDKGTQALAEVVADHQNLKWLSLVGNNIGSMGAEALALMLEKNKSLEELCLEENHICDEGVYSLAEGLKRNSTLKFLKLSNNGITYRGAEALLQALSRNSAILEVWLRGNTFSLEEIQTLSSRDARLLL

[10] = target: T4, Flag-tagged full length (WT) NLRP6 (mouse) (UniProt Q91WS2); assay: co-IP
T4 sequence: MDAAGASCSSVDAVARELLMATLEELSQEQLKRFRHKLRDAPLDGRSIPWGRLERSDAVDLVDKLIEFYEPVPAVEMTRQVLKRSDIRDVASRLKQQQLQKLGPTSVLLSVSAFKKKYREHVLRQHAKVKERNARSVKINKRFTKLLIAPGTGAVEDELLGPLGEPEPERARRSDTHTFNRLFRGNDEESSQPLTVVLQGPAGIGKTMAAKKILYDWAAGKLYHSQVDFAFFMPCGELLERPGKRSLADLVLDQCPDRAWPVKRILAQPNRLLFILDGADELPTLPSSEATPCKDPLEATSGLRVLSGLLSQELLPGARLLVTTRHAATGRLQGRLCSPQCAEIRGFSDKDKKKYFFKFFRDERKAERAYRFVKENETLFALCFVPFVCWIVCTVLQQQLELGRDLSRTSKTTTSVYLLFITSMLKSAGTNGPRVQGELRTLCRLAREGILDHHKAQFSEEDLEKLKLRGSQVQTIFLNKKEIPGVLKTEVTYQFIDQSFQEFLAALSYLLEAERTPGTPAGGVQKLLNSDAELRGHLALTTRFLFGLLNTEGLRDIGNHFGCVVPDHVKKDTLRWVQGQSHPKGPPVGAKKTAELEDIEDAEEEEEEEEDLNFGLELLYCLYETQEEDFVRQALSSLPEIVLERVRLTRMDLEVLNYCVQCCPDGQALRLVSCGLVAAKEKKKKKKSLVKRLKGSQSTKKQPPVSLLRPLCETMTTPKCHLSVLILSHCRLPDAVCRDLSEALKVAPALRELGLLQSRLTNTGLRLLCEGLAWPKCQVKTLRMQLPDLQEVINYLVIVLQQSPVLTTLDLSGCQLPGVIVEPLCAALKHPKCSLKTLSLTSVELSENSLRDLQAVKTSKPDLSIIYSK

[11] = target: Flag-tagged full length (WT) NLRC4 (HEK293T) (mouse) (UniProt Q3UP24); assay: co-IP
[12] = target: T5, Flag-tagged truncated NLRP6: NACHT domain (mouse) (UniProt Q91WS2); assay: co-IP
T5 sequence: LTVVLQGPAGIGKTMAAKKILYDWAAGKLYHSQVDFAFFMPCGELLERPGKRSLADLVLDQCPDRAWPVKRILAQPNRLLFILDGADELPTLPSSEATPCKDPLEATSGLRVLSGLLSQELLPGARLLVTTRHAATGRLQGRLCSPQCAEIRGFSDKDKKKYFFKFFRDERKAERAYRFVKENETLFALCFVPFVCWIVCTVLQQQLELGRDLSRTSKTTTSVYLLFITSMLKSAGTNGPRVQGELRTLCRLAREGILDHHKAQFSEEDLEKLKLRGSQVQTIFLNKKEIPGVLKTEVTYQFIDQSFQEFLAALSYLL

Flag-tagged CIITA = target: T6, Flag-tagged CIITA (UniProt P79621); assay: co-IP
T6 sequence: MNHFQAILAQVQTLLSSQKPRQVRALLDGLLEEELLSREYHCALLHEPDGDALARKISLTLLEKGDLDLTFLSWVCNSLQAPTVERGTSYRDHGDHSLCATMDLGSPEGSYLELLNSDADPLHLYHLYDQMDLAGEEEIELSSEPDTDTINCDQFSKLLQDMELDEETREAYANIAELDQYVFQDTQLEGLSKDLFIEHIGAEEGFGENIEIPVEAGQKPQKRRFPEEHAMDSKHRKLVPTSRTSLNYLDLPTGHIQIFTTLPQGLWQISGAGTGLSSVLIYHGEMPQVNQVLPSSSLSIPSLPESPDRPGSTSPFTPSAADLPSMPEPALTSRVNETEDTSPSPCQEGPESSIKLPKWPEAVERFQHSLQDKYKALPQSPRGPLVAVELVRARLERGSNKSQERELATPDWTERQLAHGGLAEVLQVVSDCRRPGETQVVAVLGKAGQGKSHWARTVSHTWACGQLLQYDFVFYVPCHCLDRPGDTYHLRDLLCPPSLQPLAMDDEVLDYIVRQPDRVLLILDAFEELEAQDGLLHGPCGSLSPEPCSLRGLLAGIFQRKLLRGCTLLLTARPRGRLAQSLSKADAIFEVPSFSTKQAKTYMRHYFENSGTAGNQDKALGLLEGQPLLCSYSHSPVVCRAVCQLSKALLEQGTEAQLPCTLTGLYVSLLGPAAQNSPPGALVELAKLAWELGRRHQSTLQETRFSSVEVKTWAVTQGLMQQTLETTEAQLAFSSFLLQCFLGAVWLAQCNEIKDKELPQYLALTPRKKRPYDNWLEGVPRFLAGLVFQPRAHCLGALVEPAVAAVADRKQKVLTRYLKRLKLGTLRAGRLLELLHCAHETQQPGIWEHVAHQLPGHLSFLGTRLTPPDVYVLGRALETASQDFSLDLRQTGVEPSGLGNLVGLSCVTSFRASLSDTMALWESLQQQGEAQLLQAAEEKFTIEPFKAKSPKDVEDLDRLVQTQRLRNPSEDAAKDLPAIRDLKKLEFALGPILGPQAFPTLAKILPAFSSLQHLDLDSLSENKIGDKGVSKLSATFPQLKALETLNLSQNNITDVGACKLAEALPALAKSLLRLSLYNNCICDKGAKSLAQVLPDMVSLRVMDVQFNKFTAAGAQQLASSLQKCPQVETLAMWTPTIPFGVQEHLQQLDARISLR

[13] = target: Flag-tagged truncated NLRC4: NACHT domain (mouse) (UniProt Q3UP24); assay: co-IP
[14] = target: TLR2 (co-expressed with PELO in HEK293T) (UniProt Q9QUN7); assay: co-IP

Molecule: HA-tagged NLRP3 (from UniProt Q8R4B8 1-1033)
- binding [1]: binds

Molecule: HA-tagged NLRC4 (from UniProt Q3UP24 1-1024)
- binding (Flag-tagged NAIP5): binds

Molecule: endogenous PELO (protein pelota homolog) (from UniProt Q80X73 1-385)
- binding [3]: binds
- binding [4]: binds

B1: HA-tagged PELO (natural protein)
chain: MKLVRKDIEKDNAGQVTLVPEEPEDMWHTFNLVQVGDSLRASTIRKVQTESSTGSVGSNRVRTTLTLCVEAIDFDSQACQLRVKGTNIQENEYVKMGAYHTIELEPNRQFTLAKKQWDSVVLERIEQACDPAWSADVAAVVMQEGLAHVCLVTPSMTLTRAKVEVNIPRKRKGNCSQHDRALERFYEQVVQAIQRHINFEVVKCVLVASPGFVREQFCDYMFQQAVKTDNKVLLENRSKFLQVHASSGHKYSLKEALCDPTVASRLSDTKAAGEVKALDDFYKMLQHEPDRAFYGLKQVERANEALAIDTLLISDELFRHQDVATRSRYVRLVDSVKENAGTVRIFSSLHVSGEQLGQLTGVAAILRFPVPELSDQEDDSSSEED
- binding (HA-tagged NLRC4): binds
- binding [6]: binds
- binding [7]: binds
- binding [8]: no binding
- binding (Flag-tagged NLRX1): no binding
- binding (Flag-tagged NAIP5): binds
- binding [9]: binds
- binding [10]: binds
- binding [11]: binds
- binding [12]: binds
- binding (Flag-tagged CIITA): no binding
- binding [13]: binds
- binding [14]: no binding
- binding [5]: binds

The next lines start with the values.

- binding [2]: binds
Molecule: endogenous NLRP3 (BMDMs) (from UniProt Q8R4B8 1-1033)

- binding [2]: binds
Molecule: endogenous NLRC4 (BMDMs) (from UniProt Q3UP24 1-1024)

- binding [5]: binds
Molecule: recombinant His-tagged PELO protein (from UniProt Q80X73 1-385)
